Consider one substance from paper PMC7072806.

Amino acid sequences for entries named in this document (tags omitted).
UniProt P51682: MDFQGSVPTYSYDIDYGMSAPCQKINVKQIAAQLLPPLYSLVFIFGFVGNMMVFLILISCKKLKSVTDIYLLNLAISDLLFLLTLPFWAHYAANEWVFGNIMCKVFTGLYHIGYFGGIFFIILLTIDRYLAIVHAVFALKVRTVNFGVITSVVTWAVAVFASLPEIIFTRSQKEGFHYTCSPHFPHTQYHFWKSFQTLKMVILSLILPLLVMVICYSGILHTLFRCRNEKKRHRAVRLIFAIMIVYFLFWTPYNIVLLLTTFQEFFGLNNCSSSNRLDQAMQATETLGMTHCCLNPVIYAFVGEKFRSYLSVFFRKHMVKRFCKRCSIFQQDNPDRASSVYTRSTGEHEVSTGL
UniProt Q99KQ4: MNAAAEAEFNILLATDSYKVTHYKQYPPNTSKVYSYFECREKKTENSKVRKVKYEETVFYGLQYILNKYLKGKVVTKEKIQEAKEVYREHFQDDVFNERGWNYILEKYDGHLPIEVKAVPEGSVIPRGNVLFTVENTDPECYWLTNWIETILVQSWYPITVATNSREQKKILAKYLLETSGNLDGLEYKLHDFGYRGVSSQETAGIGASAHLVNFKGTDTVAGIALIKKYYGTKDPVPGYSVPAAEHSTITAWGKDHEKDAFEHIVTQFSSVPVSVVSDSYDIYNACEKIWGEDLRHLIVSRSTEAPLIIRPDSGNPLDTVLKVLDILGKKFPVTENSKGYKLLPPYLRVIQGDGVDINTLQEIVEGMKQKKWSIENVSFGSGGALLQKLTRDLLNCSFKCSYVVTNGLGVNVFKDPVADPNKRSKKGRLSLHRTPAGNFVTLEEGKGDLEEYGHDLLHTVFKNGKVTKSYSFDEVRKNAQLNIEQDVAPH

Results are given in words; binding and its absence hold for the method and conditions named. Some entries that bind do so weakly or less than the wild type.

This assay addresses Murine C-C chemokine receptor type 5 (CCR5) on HeLa-CCR5 cells (murine) (UniProt P51682). Description: flow cytometry on cells; HeLa-CCR5 cells in suspension treated with heparinase I and III (1 h, 4 °C), incubated with eNAMPT (125 µg/mL; 2.25 µM) or maraviroc (10 µM) at 4 °C in complete medium for 20 min, then Rantes-PE (25 ng; 16 nM) for 2 h at 4 °C; percentage of Rantes-PE positive cells; only the binder purified.

Consider “Extracellular nicotinamide phosphoribosyltransferase (eNAMPT), wild-type murine full-length, recombinant (from UniProt Q99KQ4 1-491)”, for which the binding result was “binds”.
